Counter-ions that a name gives are not always drawn. The list shows a part of the results. Single values are uncertain, as repeats are few or missing.
Tested on: primary mouse Muller glia with Ascl1 overexpression
Experiment: progenitor-like (ProL) cell count fold change vs Ascl1-only control (log2 fold change); higher = more progenitor-like cells
Conditions: collection day: 2
Description: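 Primary P11 mouse Muller glia carrying dox-inducible Ascl1 were treated with Tocriscreen Stem Cell Library compounds at 0.1, 1 or 10 uM together with doxycycline for 5 days, then profiled by sci-Plex hashing and sci-RNA-seq2. Cells were annotated by marker genes and cell-type counts per well were size-factor adjusted. Read-outs are the log2 fold change of Neuronal (NeuPre + bipolar) and ProL cell counts versus the Ascl1-only control wells of the same collection day, plus the raw number of recovered cells per well. There is one well per dose, and wells with fewer than 20 cells were discarded.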

Compound | progenitor-like (log2) (0.1 µM) | progenitor-like (log2) (1 µM) | progenitor-like (log2) (10 µM)
Cc1sc2c(c1C)C(c1ccc(Cl)cc1)=N[C@@H](CC(N)=O)c1nnc(C)n1-2 | 0.316 | 0.462 | -0.17
COc1ccc(N(C(=O)Oc2c(C)cccc2C)c2ccnc(Nc3ccc(N4CCN(C)CC4)cc3)n2)c(OC)c1 | 0 | -0.322 | –
N[C@@H]1C[C@H]1c1ccccc1 [Tranylcypromine hydrochloride] | 0.0317 | 0.366 | 0.341
